Results are given in words; binding and its absence hold for the method and conditions named. In cells and extracts the contact can be indirect. Some results given as binding are weak or reduced against the parent protein; the word gives no strength.

Here are results for 2 molecules from patent US20060183130A1 (VANDERBILT UNIVERSITY, published 2006).

Assay [1] deals with T1, mouse p19ARF (murine p19Arf) (mouse) (UniProt Q64364).
T1 sequence: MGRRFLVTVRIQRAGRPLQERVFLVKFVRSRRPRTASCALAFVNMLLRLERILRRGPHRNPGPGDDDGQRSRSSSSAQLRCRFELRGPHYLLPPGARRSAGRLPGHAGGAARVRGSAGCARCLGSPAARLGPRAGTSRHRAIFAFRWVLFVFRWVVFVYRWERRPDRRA
Kind of assay: converse co-IP with ARF antibody from transfected Cos-7 cells, immunoblot for c-Myc (FIG. 2B). Background: In western blotting, separated proteins are transferred to a membrane and probed.

The target in assay [2] is c-Myc (exogenous, full length, expressed from pRcCMV-Myc2) (UniProt P01108). Description: co-IP, figure legend title (FIGS. 2A-F).
Assay [3] shares this target. Description: co-IP with c-Myc antibody under stringent detergent conditions from transfected Cos-7 cells, immunoblot with ARF antibody (FIG. 2A).
Assay [4] has the same target. Kind of assay: co-IP, summary of the experiments (exogenous proteins).

For the molecule “c-Myc (exogenous, full length, expressed from pRcCMV-Myc2) (from UniProt P01108 1-439)”, in assay [1], the binding entry was “binds”.

B1: mouse p19ARF (murine p19Arf) (other)
chain: T1 sequence
On to B1, for which the binding entry in assay [2], in assay [3] and in assay [4] was “binds” each time.
